# Reference: the supplement of paper PMC10849652
# Sequences of proteins named here, by UniProt entry; tags and fusion partners are left off. A change or cut given only in a name is not applied to a line headed by its entry.
# UniProt O75326: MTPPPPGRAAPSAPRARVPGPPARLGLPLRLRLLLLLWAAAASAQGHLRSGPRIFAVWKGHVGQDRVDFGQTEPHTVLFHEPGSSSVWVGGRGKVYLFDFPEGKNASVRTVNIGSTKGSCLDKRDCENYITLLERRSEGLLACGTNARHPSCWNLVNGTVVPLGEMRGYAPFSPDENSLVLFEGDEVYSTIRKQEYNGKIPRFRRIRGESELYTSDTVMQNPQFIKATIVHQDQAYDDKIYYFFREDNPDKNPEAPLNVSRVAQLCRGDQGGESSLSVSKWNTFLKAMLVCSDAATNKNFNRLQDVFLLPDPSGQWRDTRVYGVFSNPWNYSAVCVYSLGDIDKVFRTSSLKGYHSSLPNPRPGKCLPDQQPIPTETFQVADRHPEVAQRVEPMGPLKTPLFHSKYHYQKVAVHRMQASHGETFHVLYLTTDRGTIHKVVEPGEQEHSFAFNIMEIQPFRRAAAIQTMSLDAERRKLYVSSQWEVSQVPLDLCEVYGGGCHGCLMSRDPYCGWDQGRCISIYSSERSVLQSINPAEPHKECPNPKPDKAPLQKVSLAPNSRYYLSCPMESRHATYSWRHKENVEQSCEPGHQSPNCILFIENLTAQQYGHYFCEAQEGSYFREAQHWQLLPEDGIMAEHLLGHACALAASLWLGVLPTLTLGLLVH
# UniProt Q6UVJ0: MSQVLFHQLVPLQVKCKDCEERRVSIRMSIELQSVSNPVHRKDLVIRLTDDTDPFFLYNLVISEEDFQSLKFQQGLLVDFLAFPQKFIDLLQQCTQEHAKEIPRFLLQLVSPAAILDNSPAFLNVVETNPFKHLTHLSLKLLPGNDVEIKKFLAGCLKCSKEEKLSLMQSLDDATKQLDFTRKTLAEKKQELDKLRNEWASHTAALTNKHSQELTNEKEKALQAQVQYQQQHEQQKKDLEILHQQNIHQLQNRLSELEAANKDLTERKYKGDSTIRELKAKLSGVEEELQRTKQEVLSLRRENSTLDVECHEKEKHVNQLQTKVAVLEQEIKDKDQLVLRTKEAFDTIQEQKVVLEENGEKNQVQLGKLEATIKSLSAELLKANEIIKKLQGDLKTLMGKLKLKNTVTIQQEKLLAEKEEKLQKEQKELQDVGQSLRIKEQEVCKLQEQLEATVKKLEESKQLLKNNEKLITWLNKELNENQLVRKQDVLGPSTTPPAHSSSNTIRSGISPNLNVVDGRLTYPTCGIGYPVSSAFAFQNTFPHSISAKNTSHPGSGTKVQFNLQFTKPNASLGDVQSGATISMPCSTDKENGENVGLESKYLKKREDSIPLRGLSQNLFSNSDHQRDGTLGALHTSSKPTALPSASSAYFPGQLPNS
# UniProt P60059: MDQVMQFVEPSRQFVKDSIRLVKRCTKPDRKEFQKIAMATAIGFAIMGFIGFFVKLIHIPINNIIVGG
# UniProt O95487: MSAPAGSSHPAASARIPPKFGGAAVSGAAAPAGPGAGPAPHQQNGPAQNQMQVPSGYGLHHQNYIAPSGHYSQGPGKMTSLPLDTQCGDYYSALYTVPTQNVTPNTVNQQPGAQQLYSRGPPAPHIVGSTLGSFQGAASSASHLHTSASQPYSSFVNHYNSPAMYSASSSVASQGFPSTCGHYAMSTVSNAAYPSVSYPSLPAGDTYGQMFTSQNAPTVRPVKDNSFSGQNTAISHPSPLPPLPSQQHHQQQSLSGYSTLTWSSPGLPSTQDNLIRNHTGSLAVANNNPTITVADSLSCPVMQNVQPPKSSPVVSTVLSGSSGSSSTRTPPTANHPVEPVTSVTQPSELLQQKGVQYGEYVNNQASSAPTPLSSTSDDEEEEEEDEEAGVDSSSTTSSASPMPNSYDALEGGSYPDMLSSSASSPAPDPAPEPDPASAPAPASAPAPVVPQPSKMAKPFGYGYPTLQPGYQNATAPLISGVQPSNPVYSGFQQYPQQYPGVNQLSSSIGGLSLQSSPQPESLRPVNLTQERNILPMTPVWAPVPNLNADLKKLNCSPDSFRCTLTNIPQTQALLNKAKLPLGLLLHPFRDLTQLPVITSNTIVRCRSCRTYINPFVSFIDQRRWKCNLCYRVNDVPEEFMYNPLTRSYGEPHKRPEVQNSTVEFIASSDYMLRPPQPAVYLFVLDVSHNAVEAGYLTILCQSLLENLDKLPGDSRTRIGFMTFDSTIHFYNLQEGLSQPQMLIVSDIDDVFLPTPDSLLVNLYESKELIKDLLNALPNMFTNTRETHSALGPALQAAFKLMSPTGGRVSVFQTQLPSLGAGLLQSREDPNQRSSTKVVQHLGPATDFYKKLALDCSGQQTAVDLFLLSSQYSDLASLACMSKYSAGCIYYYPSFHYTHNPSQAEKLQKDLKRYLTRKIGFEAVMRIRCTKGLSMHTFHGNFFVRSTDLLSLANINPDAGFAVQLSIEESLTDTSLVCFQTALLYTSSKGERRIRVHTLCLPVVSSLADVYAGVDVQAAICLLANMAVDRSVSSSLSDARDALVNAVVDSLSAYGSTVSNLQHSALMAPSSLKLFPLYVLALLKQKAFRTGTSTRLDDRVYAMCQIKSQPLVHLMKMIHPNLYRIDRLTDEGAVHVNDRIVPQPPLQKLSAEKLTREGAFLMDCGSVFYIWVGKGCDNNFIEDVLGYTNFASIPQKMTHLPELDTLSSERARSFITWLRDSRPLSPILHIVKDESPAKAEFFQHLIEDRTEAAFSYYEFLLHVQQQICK
# UniProt Q9H7N4: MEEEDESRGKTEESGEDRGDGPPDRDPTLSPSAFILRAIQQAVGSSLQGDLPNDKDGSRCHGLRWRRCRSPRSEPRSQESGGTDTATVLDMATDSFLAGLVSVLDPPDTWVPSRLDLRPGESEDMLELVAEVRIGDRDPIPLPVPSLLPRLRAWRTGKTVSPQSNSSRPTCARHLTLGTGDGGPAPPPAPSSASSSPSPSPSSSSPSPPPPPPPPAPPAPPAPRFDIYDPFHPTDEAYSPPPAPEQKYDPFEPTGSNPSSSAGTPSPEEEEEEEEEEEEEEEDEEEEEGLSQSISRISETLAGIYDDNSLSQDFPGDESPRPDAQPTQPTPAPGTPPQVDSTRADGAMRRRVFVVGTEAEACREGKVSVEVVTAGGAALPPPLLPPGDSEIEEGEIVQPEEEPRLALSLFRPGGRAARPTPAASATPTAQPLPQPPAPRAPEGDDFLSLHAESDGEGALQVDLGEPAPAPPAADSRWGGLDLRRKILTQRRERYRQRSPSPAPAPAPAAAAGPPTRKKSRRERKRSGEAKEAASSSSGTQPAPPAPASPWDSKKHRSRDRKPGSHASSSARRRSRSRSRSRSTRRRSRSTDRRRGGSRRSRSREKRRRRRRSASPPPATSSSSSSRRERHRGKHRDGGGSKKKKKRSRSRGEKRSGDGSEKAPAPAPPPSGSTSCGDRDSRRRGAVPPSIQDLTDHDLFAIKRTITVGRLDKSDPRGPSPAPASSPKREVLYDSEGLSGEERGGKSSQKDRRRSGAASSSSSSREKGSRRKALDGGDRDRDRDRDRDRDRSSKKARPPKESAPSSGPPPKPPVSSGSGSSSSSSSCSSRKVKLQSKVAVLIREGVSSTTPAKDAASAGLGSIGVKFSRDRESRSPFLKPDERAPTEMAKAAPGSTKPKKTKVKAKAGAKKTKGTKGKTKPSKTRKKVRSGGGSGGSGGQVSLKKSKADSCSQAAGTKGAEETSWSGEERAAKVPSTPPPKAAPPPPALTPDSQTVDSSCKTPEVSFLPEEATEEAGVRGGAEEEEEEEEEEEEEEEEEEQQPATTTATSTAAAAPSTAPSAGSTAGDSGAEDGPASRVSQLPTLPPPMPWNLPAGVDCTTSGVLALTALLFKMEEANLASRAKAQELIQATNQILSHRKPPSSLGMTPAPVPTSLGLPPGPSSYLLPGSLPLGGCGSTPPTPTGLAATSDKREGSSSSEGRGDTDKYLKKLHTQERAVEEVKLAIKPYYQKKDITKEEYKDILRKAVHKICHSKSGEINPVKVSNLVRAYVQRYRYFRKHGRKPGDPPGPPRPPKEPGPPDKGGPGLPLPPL
# UniProt Q9HCN8: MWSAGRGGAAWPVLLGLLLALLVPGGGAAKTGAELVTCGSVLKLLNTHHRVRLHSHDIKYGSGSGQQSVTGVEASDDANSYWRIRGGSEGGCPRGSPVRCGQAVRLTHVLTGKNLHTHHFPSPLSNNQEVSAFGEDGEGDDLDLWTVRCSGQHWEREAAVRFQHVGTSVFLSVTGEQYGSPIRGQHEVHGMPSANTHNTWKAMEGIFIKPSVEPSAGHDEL
# UniProt O00767: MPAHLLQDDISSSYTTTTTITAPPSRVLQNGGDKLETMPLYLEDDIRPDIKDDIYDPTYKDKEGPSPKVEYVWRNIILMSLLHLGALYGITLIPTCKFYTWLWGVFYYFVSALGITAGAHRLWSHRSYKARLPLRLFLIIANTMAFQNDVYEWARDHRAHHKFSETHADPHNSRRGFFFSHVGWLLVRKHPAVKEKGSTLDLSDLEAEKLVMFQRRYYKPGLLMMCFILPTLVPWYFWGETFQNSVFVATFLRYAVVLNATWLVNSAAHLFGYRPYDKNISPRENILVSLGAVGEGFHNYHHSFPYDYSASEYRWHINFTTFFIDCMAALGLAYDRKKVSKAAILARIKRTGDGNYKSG
# UniProt O95104: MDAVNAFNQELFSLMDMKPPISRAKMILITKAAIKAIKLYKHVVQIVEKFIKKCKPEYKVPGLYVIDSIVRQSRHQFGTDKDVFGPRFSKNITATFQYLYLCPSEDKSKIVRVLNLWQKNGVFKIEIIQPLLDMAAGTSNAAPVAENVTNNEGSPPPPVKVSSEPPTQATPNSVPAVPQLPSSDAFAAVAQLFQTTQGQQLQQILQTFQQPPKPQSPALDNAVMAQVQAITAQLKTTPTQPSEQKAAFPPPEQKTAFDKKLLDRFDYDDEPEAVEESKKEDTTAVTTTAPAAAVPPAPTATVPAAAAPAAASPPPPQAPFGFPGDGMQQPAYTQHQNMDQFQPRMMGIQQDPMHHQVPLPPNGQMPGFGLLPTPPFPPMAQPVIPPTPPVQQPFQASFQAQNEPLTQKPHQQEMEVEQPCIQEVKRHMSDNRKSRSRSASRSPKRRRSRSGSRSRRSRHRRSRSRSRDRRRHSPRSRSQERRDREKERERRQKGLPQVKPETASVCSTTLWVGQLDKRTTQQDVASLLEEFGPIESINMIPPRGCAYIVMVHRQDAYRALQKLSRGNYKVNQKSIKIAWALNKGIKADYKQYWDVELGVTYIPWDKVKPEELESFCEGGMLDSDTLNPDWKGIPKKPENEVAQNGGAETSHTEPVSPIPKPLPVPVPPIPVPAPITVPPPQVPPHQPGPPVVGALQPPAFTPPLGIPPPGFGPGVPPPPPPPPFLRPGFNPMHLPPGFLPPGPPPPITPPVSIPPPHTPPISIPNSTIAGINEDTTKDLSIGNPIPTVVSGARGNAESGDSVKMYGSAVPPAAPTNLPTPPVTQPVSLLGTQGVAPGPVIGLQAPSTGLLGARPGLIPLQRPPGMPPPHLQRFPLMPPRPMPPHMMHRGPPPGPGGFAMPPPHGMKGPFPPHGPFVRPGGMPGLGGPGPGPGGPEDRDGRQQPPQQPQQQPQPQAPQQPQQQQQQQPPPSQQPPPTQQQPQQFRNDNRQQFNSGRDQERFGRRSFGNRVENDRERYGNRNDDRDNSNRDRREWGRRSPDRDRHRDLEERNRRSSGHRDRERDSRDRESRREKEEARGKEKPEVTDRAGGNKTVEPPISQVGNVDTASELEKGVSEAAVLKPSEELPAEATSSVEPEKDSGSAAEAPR
# UniProt Q9C0C4, whole entry, looked up: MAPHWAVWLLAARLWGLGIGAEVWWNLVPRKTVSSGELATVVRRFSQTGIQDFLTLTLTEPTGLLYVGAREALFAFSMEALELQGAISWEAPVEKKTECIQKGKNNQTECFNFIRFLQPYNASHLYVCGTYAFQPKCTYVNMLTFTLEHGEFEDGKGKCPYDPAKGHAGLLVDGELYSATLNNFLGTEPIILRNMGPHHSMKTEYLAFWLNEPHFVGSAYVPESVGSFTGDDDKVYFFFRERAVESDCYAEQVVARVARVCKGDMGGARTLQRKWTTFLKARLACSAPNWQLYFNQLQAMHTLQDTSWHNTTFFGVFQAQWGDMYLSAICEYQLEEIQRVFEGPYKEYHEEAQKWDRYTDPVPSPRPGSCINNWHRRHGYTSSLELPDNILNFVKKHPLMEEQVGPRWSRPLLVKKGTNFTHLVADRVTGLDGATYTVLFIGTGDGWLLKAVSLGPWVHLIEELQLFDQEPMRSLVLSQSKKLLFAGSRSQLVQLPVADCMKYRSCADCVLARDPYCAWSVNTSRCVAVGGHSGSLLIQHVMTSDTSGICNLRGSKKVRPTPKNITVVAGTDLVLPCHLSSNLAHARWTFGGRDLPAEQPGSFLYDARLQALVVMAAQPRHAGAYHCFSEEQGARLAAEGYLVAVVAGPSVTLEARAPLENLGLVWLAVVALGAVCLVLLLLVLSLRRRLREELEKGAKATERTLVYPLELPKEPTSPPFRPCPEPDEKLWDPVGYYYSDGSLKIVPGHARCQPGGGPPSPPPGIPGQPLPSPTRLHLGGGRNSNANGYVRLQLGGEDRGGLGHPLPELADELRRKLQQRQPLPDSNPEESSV
# The other results are listed elsewhere or left out.
# How the values were obtained:
# Assay in all cases: log2 fold change, soluble protein after heating vs DMSO (PISA); higher = thermal stabilisation; K562 lysate, 10 uM; active = over 0.2 and 3.5 SD of the protein, either way, in both replicates (recomputed)
# ibrutinib = compound: C=CC(=O)N1CCC[C@@H](n2nc(-c3ccc(Oc4ccccc4)cc3)c3c(N)ncnc32)C1 [ibrutinib]
# Summary of the method: (§1)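 K562 pellets were dounce-homogenised in PBS pH 7.4 with 1 mM MgCl2, and the crude extract at 1 mg/mL protein was treated with 10 μM compound for 30 min. Aliquots were heated for 3 min across 48°C-58°C, pooled, and brought to 0.5% NP-40 at 4°C; soluble protein was the supernatant after 21,000xg for 90 min. Soluble protein was quantified by TMTpro 16plex LC-MS/MS with channel sums equalised, and reported as log2 fold change in thermal stability against DMSO controls, with values from duplicates.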
# [1] = compound: CC(=O)c1cnc2ccc(-c3cc(Cl)c(O)c(Cl)c3)nc2c1N[C@H]1CC[C@H](CN(C)C)CC1
# Summary of the method: as §1
# ralimetinib = compound: CC(C)(C)Cn1c(N)nc2ccc(-c3[nH]c(C(C)(C)C)nc3-c3ccc(F)cc3)nc21 [ralimetinib]
# Summary of the method: as §1
# [2] = compound: CC(C)(O)CC(=O)NCCn1ccc2ncnc(Nc3ccc(Oc4cccc(C(F)(F)F)c4)c(Cl)c3)c21
# Summary of the method: as §1
# [3] = compound: CC(C)C1=C2N=C(C=C(N2N=C1)NCC3=CC=CC=C3)NCCCCCCN
# Summary of the method: as §1
# [4] = compound: CC1=C(C(CC(=O)N1)C2=CC=C(C=C2)C(F)(F)F)C(=O)NC3=C(C=C4C(=C3)C=NN4)F
# Summary of the method: as §1
# [5] = compound: CC1=C(C2=C(C=C1)C(=O)C3=CC=CC=C3N2CCCN)C
# Summary of the method: as §1
# [6] = compound: CC1=C(C=C(C=C1)NC(=O)C2=CC(=CC=C2)C(C)(C)C#N)NC3=CC4=C(C=C3)N=CN(C4=O)C
# Summary of the method: as §1
# [7] = compound: CC1=C(C=C(C=C1)NC(=O)C2=CC(=CC=C2)N(C)C)NC(=O)C3=CC=C(C=C3)O
# Summary of the method: as §1
# [8] = compound: CC1=CC=C(C=C1)SC2=C3C=C(SC3=CN=C2)C(=O)N
# Summary of the method: as §1
# vemurafenib = compound: CCCS(=O)(=O)Nc1ccc(F)c(C(=O)c2c[nH]c3ncc(-c4ccc(Cl)cc4)cc23)c1F [vemurafenib]
# Summary of the method: as §1
# [9] = compound: CCCS(=O)(=O)Nc1ccc(F)c(C(=O)c2c[nH]c3ncc(Cl)cc23)c1F
# Summary of the method: as §1
# barasertib = compound: CCN(CCCOc1ccc2c(Nc3cc(CC(=O)Nc4cccc(F)c4)[nH]n3)ncnc2c1)CCOP(=O)(O)O [barasertib]
# Summary of the method: as §1
# [10] = compound: CC[C@@H]1C(=O)N(C)c2cnc(Nc3ccc(C(=O)NC4CCN(C)CC4)cc3OC)nc2N1C1CCCC1
# Summary of the method: as §1
# volasertib = compound: CC[C@@H]1C(=O)N(C)c2cnc(Nc3ccc(C(=O)N[C@H]4CC[C@H](N5CCN(CC6CC6)CC5)CC4)cc3OC)nc2N1C(C)C [volasertib]
# Summary of the method: as §1
# [11] = compound: CCn1c(C(=O)N(C2CC2)C2CC2)cc2c3c(ncn3C)c(Nc3cc(C)n(C)n3)nc21
# Summary of the method: as §1
# [12] = compound: CCn1cc(-c2ccnc3[nH]c(-c4cccc(CN(C)C)c4)cc23)c(-c2ccc(NC(=O)N(C)C)cc2)n1
# Summary of the method: as §1
# [13] = compound: CN1CCC(CNc2ccc3ncc(-c4cccc(OC(F)(F)F)c4)n3n2)CC1
# Summary of the method: as §1
# saracatinib = compound: CN1CCN(CCOc2cc(OC3CCOCC3)c3c(Nc4c(Cl)ccc5c4OCO5)ncnc3c2)CC1 [saracatinib]
# Summary of the method: as §1
# sotrastaurin = compound: CN1CCN(c2nc(C3=C(c4c[nH]c5ccccc45)C(=O)NC3=O)c3ccccc3n2)CC1 [sotrastaurin]
# Summary of the method: as §1
Target,log2 fold change (ibrutinib),log2 fold change [1],log2 fold change (ralimetinib),log2 fold change [2],log2 fold change [3],log2 fold change [4],log2 fold change [5],log2 fold change [6],log2 fold change [7],log2 fold change [8],log2 fold change (vemurafenib),log2 fold change [9],log2 fold change (barasertib),log2 fold change [10],log2 fold change (volasertib),log2 fold change [11],log2 fold change [12],log2 fold change [13],log2 fold change (saracatinib),log2 fold change (sotrastaurin)
SEC23IP (UniProt Q9Y6Y8),inactive: 0.005,inactive: -0.028,inactive: -0.006,inactive: -0.021,inactive: -0.016,inactive: -0.03,inactive: -0.002,inactive: -0.041,inactive: -0.016,inactive: -0.014,inactive: -0.036,inactive: 0.017,inactive: -0.007,inactive: 0.008,inactive: -0.01,inactive: 0.002,inactive: 0.023,inactive: -0.03,inactive: 0.004,inactive: 0
SEMA7A (UniProt O75326),inactive: 0.009,inactive: -0.015,inactive: -0.012,inactive: 0.025,inactive: -0.15,inactive: 0.041,inactive: 0.051,inactive: 0.035,inactive: 0.034,inactive: 0.037,inactive: 0.001,inactive: -0.082,inactive: -0.011,inactive: 0.033,inactive: -0.037,inactive: -0.044,inactive: 0.05,inactive: -0.084,inactive: 0.182,inactive: 0.01
SASS6 (UniProt Q6UVJ0),inactive: -0.006,inactive: 0.023,inactive: -0.006,inactive: -0.056,inactive: -0.017,inactive: 0.024,inactive: 0.007,inactive: 0.015,inactive: 0.001,inactive: -0.021,inactive: 0.042,inactive: -0.024,inactive: -0.016,inactive: 0.039,inactive: -0.024,inactive: 0.024,inactive: 0.154,inactive: -0.047,inactive: 0.059,inactive: -0.02
SCLY (UniProt Q96I15),inactive: -0.018,inactive: 0.006,inactive: 0.025,inactive: -0.02,inactive: 0.012,inactive: -0.002,inactive: -0.009,inactive: -0.013,inactive: -0.014,inactive: -0.004,inactive: 0.015,inactive: 0.006,inactive: 0.019,inactive: -0.02,inactive: 0,inactive: -0.013,inactive: -0.005,inactive: 0.026,inactive: -0.02,inactive: -0.015
SEC61G (UniProt P60059),inactive: 0.037,inactive: 0,inactive: -0.019,inactive: -0.229,inactive: -0.052,inactive: -0.081,inactive: -0.053,inactive: 0.071,inactive: 0.004,inactive: 0.052,inactive: 0.015,inactive: -0.079,inactive: 0.175,inactive: 0.159,inactive: 0.033,inactive: -0.067,inactive: -0.118,inactive: 0.405,inactive: -0.276,inactive: -0.184
SEC24B isoform 3 (UniProt O95487),inactive: 0.044,inactive: -0.005,inactive: -0.012,inactive: -0.028,inactive: 0.023,inactive: -0.039,inactive: -0.01,inactive: -0.016,inactive: -0.015,inactive: -0.023,inactive: 0.028,inactive: 0.044,inactive: 0.051,inactive: 0.03,inactive: -0.044,inactive: 0.036,inactive: 0.216,inactive: -0.079,inactive: 0.037,inactive: 0.037
SCAF1 (UniProt Q9H7N4),inactive: 0.219,inactive: -0.054,inactive: -0.025,inactive: 0.171,inactive: 0.042,inactive: 0.065,inactive: -0.06,inactive: 0.056,inactive: 0.056,inactive: 0.002,inactive: 0.027,inactive: 0.093,inactive: 0.079,inactive: 0.089,inactive: -0.114,inactive: 0.05,inactive: -0.041,inactive: 0.008,inactive: 0.009,inactive: -0.029
SDE2 (UniProt Q6IQ49),inactive: 0.026,inactive: -0.015,inactive: -0.003,inactive: 0.002,inactive: 0.02,inactive: -0.038,inactive: 0.008,inactive: -0.002,inactive: 0,inactive: -0.029,inactive: -0.038,inactive: 0.028,inactive: 0.015,inactive: 0.011,inactive: 0.023,inactive: 0.035,inactive: -0.014,inactive: -0.001,inactive: 0.016,inactive: -0.022
SDAD1 (UniProt Q9NVU7),inactive: 0.021,inactive: -0.013,inactive: 0.018,inactive: -0.027,inactive: -0.01,inactive: 0.02,inactive: -0.022,inactive: 0.003,inactive: 0.022,inactive: 0.009,inactive: -0.011,inactive: 0.026,inactive: -0.002,inactive: 0.036,inactive: -0.018,inactive: 0.012,inactive: -0.018,inactive: -0.002,inactive: -0.014,inactive: 0.016
SDF2L1 (UniProt Q9HCN8),inactive: 0.018,inactive: 0.007,inactive: 0.081,inactive: -0.001,inactive: -0.002,inactive: -0.002,inactive: 0.005,inactive: 0.013,inactive: 0.006,inactive: 0.004,inactive: 0.018,inactive: 0.011,inactive: -0.021,inactive: 0.001,inactive: 0.019,inactive: 0.014,inactive: -0.166,inactive: 0.089,inactive: -0.001,inactive: -0.009
S100P (UniProt P25815),inactive: 0.011,inactive: -0.036,inactive: 0,inactive: -0.007,inactive: 0.02,inactive: -0.078,inactive: 0.061,inactive: 0.116,inactive: 0.054,inactive: 0.074,inactive: 0.018,inactive: -0.045,inactive: 0.245,inactive: 0.002,inactive: 0.104,inactive: 0.062,inactive: 0.049,inactive: -0.223,inactive: -0.029,inactive: -0.093
SCD (UniProt O00767),inactive: -0.06,inactive: -0.053,inactive: 0.059,inactive: -0.009,inactive: -0.052,inactive: 0.032,inactive: 0.047,inactive: 0.02,inactive: -0.085,inactive: -0.128,inactive: -0.03,inactive: 0.111,inactive: 0.042,inactive: 0.006,inactive: 0.098,inactive: -0.082,active: -0.504,inactive: 0.212,inactive: 0.071,inactive: 0.084
SBNO1 (UniProt A3KN83),inactive: -0.011,inactive: -0.004,inactive: -0.002,inactive: -0.012,inactive: -0.001,inactive: -0.006,inactive: -0.02,inactive: 0.021,inactive: -0.003,inactive: 0,inactive: -0.039,inactive: 0.006,inactive: 0.016,inactive: 0.031,inactive: -0.011,inactive: 0.008,inactive: -0.026,inactive: 0.025,inactive: -0.013,inactive: 0.019
SCAF4 (UniProt O95104),inactive: 0,inactive: 0.041,inactive: 0.01,inactive: -0.029,inactive: -0.003,inactive: 0.005,inactive: -0.004,inactive: -0.042,inactive: 0.045,inactive: -0.003,inactive: 0.018,inactive: 0.071,inactive: 0.032,inactive: 0.017,inactive: -0.03,inactive: -0.008,inactive: 0.002,inactive: -0.011,inactive: -0.015,inactive: 0.052
SDHAF3 (UniProt Q9NRP4),inactive: -0.042,inactive: 0.011,inactive: 0.022,inactive: -0.048,inactive: -0.032,inactive: -0.04,inactive: 0.065,inactive: -0.043,inactive: -0.025,inactive: 0.029,inactive: -0.095,inactive: -0.001,inactive: 0.051,inactive: -0.032,inactive: -0.033,inactive: 0.009,inactive: 0.001,inactive: 0.073,inactive: -0.024,inactive: -0.016
SEMA4C (UniProt Q9C0C4),inactive: 0.023,inactive: -0.008,inactive: -0.064,inactive: -0.047,inactive: -0.032,inactive: 0.007,inactive: -0.032,inactive: -0.017,inactive: 0.005,inactive: -0.013,inactive: -0.036,inactive: -0.005,inactive: 0.004,inactive: 0.01,inactive: 0,inactive: 0.045,inactive: -0.005,inactive: 0.011,inactive: 0.03,inactive: -0.004

# Whole records from above. Values in the order: log2 fold change (ibrutinib) | log2 fold change [1] | log2 fold change (ralimetinib) | log2 fold change [2] | log2 fold change [3] | log2 fold change [4] | log2 fold change [5] | log2 fold change [6] | log2 fold change [7] | log2 fold change [8] | log2 fold change (vemurafenib) | log2 fold change [9] | log2 fold change (barasertib) | log2 fold change [10] | log2 fold change (volasertib) | log2 fold change [11] | log2 fold change [12] | log2 fold change [13] | log2 fold change (saracatinib) | log2 fold change (sotrastaurin)
# SCLY (UniProt Q96I15) is entered as inactive: -0.018 | inactive: 0.006 | inactive: 0.025 | inactive: -0.02 | inactive: 0.012 | inactive: -0.002 | inactive: -0.009 | inactive: -0.013 | inactive: -0.014 | inactive: -0.004 | inactive: 0.015 | inactive: 0.006 | inactive: 0.019 | inactive: -0.02 | inactive: 0 | inactive: -0.013 | inactive: -0.005 | inactive: 0.026 | inactive: -0.02 | inactive: -0.015
# SEC61G (UniProt P60059) is entered as inactive: 0.037 | inactive: 0 | inactive: -0.019 | inactive: -0.229 | inactive: -0.052 | inactive: -0.081 | inactive: -0.053 | inactive: 0.071 | inactive: 0.004 | inactive: 0.052 | inactive: 0.015 | inactive: -0.079 | inactive: 0.175 | inactive: 0.159 | inactive: 0.033 | inactive: -0.067 | inactive: -0.118 | inactive: 0.405 | inactive: -0.276 | inactive: -0.184
